# Data published in the supplement of paper PMC11438910.
# The other results are listed elsewhere or left out. Only a few entries rise above the background.
# B1: 4-173.5 (protein)
# chain 1: QLQLQESGPGLVKPSETLSLTCAVSGDSISSNYWSWIRQPPGKGLEWIGRISDGGGSTDYNPSLKSRVTISTDTSKNQFSLKLNSVTAADTAVYFCARGSYRVDYWGQGVLVTVSS
# chain 2: QAALTQPPSMSGSPGQSVTISCTGASSDIGGYNRVSWYQQHPANAPKLMIYDVSKRPSGVSDRFSGSKSGNTASLTISGLQADDEADYYCSSYAHINTALFGGGTRLTVL
# What was measured:
# Assay in all cases: fluorescence intensity of antibody binding to polysaccharide-coupled beads; higher = stronger binding
# [1] = target: pneumococcal polysaccharide Pn41A
# [2] = target: pneumococcal polysaccharide Pn41F
# [3] = target: pneumococcal polysaccharide Pn42
# [4] = target: pneumococcal polysaccharide Pn43
# [5] = target: pneumococcal polysaccharide Pn44
# [6] = target: pneumococcal polysaccharide Pn45
# [7] = target: pneumococcal polysaccharide Pn46
# [8] = target: pneumococcal polysaccharide Pn47A
# [9] = target: pneumococcal polysaccharide Pn47F
# [10] = target: pneumococcal polysaccharide Pn48
# [11] = target: pneumococcal polysaccharide Pn5
# [12] = target: pneumococcal polysaccharide Pn6A
# [13] = antibody concentration 2.8593 ng/mL
# [14] = antibody concentration 15.2894 ng/mL
# [15] = antibody concentration 81.7561 ng/mL
# [16] = antibody concentration 437.17 ng/mL
# [17] = antibody concentration 2337.65 ng/mL
# [18] = antibody concentration 12500 ng/mL
# [19] = antibody concentration 0.1 ng/mL
# [20] = antibody concentration 0.534724 ng/mL
binder,measurement,setting,value
B1,fluorescence intensity,[1]; [13],26 MFI
same,fluorescence intensity,[1]; [14],38.5 MFI
same,fluorescence intensity,[1]; [15],125 MFI
same,fluorescence intensity,[1]; [16],651 MFI
same,fluorescence intensity,[1]; [17],2070 MFI
same,fluorescence intensity,[1]; [18],3180 MFI
same,fluorescence intensity,[2]; [19],12.5 MFI
same,fluorescence intensity,[2]; [20],13.5 MFI
same,fluorescence intensity,[2]; [13],14.5 MFI
same,fluorescence intensity,[2]; [14],30.2 MFI
same,fluorescence intensity,[2]; [15],137 MFI
same,fluorescence intensity,[2]; [16],640 MFI
same,fluorescence intensity,[2]; [17],2050 MFI
same,fluorescence intensity,[2]; [18],3270 MFI
same,fluorescence intensity,[3]; [19],12 MFI
same,fluorescence intensity,[3]; [20],11.5 MFI
same,fluorescence intensity,[3]; [13],15 MFI
same,fluorescence intensity,[3]; [14],35 MFI
same,fluorescence intensity,[3]; [15],182 MFI
same,fluorescence intensity,[3]; [16],984 MFI
same,fluorescence intensity,[3]; [17],3380 MFI
same,fluorescence intensity,[3]; [18],5150 MFI
same,fluorescence intensity,[4]; [19],16.5 MFI
same,fluorescence intensity,[4]; [20],16.5 MFI
same,fluorescence intensity,[4]; [13],16 MFI
same,fluorescence intensity,[4]; [14],22.5 MFI
same,fluorescence intensity,[4]; [15],50 MFI
same,fluorescence intensity,[4]; [16],273 MFI
same,fluorescence intensity,[4]; [17],1390 MFI
same,fluorescence intensity,[4]; [18],3510 MFI
same,fluorescence intensity,[5]; [19],25 MFI
same,fluorescence intensity,[5]; [20],25.5 MFI
same,fluorescence intensity,[5]; [13],25 MFI
same,fluorescence intensity,[5]; [14],26 MFI
same,fluorescence intensity,[5]; [15],31 MFI
same,fluorescence intensity,[5]; [16],58.5 MFI
same,fluorescence intensity,[5]; [17],333 MFI
same,fluorescence intensity,[5]; [18],1070 MFI
same,fluorescence intensity,[6]; [19],11 MFI
same,fluorescence intensity,[6]; [20],11.2 MFI
same,fluorescence intensity,[6]; [13],12 MFI
same,fluorescence intensity,[6]; [14],14 MFI
same,fluorescence intensity,[6]; [15],27.5 MFI
same,fluorescence intensity,[6]; [16],152 MFI
same,fluorescence intensity,[6]; [17],842 MFI
same,fluorescence intensity,[6]; [18],1920 MFI
same,fluorescence intensity,[7]; [19],24.2 MFI
same,fluorescence intensity,[7]; [20],24 MFI
same,fluorescence intensity,[7]; [13],27.5 MFI
same,fluorescence intensity,[7]; [14],60 MFI
same,fluorescence intensity,[7]; [15],290 MFI
same,fluorescence intensity,[7]; [16],1250 MFI
same,fluorescence intensity,[7]; [17],3860 MFI
same,fluorescence intensity,[7]; [18],6470 MFI
same,fluorescence intensity,[8]; [19],15.5 MFI
same,fluorescence intensity,[8]; [20],16 MFI
same,fluorescence intensity,[8]; [13],16.5 MFI
same,fluorescence intensity,[8]; [14],23.8 MFI
same,fluorescence intensity,[8]; [15],74 MFI
same,fluorescence intensity,[8]; [16],387 MFI
same,fluorescence intensity,[8]; [17],1530 MFI
same,fluorescence intensity,[8]; [18],2300 MFI
same,fluorescence intensity,[9]; [19],12 MFI
same,fluorescence intensity,[9]; [20],12.5 MFI
same,fluorescence intensity,[9]; [13],13.5 MFI
same,fluorescence intensity,[9]; [14],23.8 MFI
same,fluorescence intensity,[9]; [15],103 MFI
same,fluorescence intensity,[9]; [16],586 MFI
same,fluorescence intensity,[9]; [17],2020 MFI
same,fluorescence intensity,[9]; [18],3440 MFI
same,fluorescence intensity,[10]; [19],21.5 MFI
same,fluorescence intensity,[10]; [20],21 MFI
same,fluorescence intensity,[10]; [13],24.8 MFI
same,fluorescence intensity,[10]; [14],29 MFI
same,fluorescence intensity,[10]; [15],68 MFI
same,fluorescence intensity,[10]; [16],336 MFI
same,fluorescence intensity,[10]; [17],1480 MFI
same,fluorescence intensity,[10]; [18],2650 MFI
same,fluorescence intensity,[11]; [19],8.5 MFI
same,fluorescence intensity,[11]; [20],9.75 MFI
same,fluorescence intensity,[11]; [13],10.5 MFI
same,fluorescence intensity,[11]; [14],22.8 MFI
same,fluorescence intensity,[11]; [15],102 MFI
same,fluorescence intensity,[11]; [16],492 MFI
same,fluorescence intensity,[11]; [17],1680 MFI
same,fluorescence intensity,[11]; [18],2950 MFI
same,fluorescence intensity,[12]; [19],22 MFI
same,fluorescence intensity,[12]; [20],22 MFI
same,fluorescence intensity,[12]; [13],25.5 MFI
same,fluorescence intensity,[12]; [14],54.8 MFI

# 4 records picked at random from the list so far:
binder,measurement,setting,value
B1,fluorescence intensity,[3]; [14],35 MFI
same,fluorescence intensity,[1]; [18],3180 MFI
same,fluorescence intensity,[4]; [19],16.5 MFI
same,fluorescence intensity,[9]; [13],13.5 MFI

# Laid out differently: results already given.
binder	measurement	setting	value
B1	fluorescence intensity	[3]; [13]	15 MFI
same	fluorescence intensity	[5]; [19]	25 MFI
